Reference: patent US20170189504A1, “NOVEL PEPTIDES AND COMBINATION OF PEPTIDES FOR USE IN IMMUNOTHERAPY AGAINST VARIOUS CANCERS” (immatics biotechnologies GmbH, priority 2015, published 2017)
For some assays here: For expression read-outs the peptide stands for its source gene, whose mRNA was measured; the gene is not named for every peptide.

How the values were obtained:
[1] = tested on: HLA-A*02; assay: Identification and relative LC-MS quantitation of HLA-A*02-presented tumor-associated peptides on tissue samples (presentation profiles, Tables 13A, 13B, 15, FIG. 1); set-up: species or system human; key to Presentation score NHL / Presentation score CLL / Presentation score BRCA / Presentation score AML / Presentation score GB / Presentation score NSCLC / Presentation score GBC_CCC / Presentation score UEC / Presentation score MEL / Presentation score OSCAR / Presentation score GC / Presentation score UBC / Presentation score OC / Presentation score RCC / Presentation score CRC / Presentation score PCA / Presentation score HCC / Presentation score PC / Presentation score SCLC: specifically presented on tumors (++++); very highly over-presented on tumors compared to a panel of normal tissues (+++); highly over-presented on tumors compared to a panel of normal tissues (++); over-presented on tumors compared to a panel of normal tissues (+); conditions: for Presentation score CLL: chronic lymphocytic leukemia (N = 17) vs panel of normal tissues (N = 262); for Presentation score GBC_CCC: gallbladder adenocarcinoma and cholangiocarcinoma (N = 6) vs panel of normal tissues (N = 262); for Presentation score NHL: non-Hodgkin lymphoma (N = 18) vs panel of normal tissues (N = 262); for Peptide Presentation on cancer entities: HLA-A*02-binding tumor-associated peptides
[2] = tested on: source genes (mRNA); assay: Gene and exon expression of source genes, TCGA tumor samples compared with normal tissue samples (Lonsdale, 2013) (Table 17); set-up: species or system human; conditions: for Over-expression category of source gene (target coverage), BLCA: BLCA = Bladder urothelial carcinoma (N = 408); for Over-expression category of source gene (target coverage), BRCA: BRCA = Breast cancer (N = 1104), tumors more than 2-fold above highest 75% percentile of normal tissues; for Over-expression category of source gene (target coverage), COAD: COAD = Colon and rectal adenocarcinoma (N = 462); for Over-expression category of source gene (target coverage), DLBC: DLBC = Lymphoid neoplasm diffuse large B-cell lymphoma (N = 48); for Over-expression category of source gene (target coverage), ESCA: ESCA = Esophageal cancer (N = 185); for Over-expression category of source gene (target coverage), GBM: GBM = Glioblastoma multiforme (N = 169); for Over-expression category of source gene (target coverage), LAML: LAML = Acute Myeloid Leukemia (N = 173); for Over-expression category of source gene (target coverage), LUAD: LUAD = Lung adenocarcinoma (N = 517); for Over-expression category of source gene (target coverage), LUSC: LUSC = Lung squamous cell carcinoma (N = 503); for Over-expression category of source gene (target coverage), OV: OV = Ovarian serous cystadenocarcinoma (N = 309); for Over-expression category of source gene (target coverage), READ: READ = Colon and rectal adenocarcinoma (N = 167); for Over-expression category of source gene (target coverage), SKCM: SKCM = Skin cutaneous melanoma (N = 473); for Over-expression category of source gene (target coverage), STAD: STAD = Stomach adenocarcinoma (N = 415); for Over-expression category of source gene (target coverage), UCEC: UCEC = Uterine corpus endometrial carcinoma (N = 546)
[3] = tested on: source genes (mRNA); assay: Expression profiling of source genes by in-house RNASeq of tumor and normal tissues (Table 18, FIG. 2); set-up: species or system human; key: very highly over-expressed in tumors compared to a panel of normal tissues (+++); highly over-expressed in tumors compared to a panel of normal tissues (++); over-expressed in tumors compared to a panel of normal tissues (+); conditions: source gene of peptide; for Expression score BRCA: BRCA tumors vs panel of normal tissues; for Expression score AML: acute myeloid leukemia (N = 11) vs panel of normal tissues; for Expression score CRC: colorectal cancer (N = 20) vs panel of normal tissues; for Expression score OSCAR: esophageal cancer incl. gastric-esophageal junction (N = 11) vs panel of normal tissues; for Expression score GBC_CCC: gallbladder adenocarcinoma and cholangiocarcinoma (N = 3) vs panel of normal tissues; for Expression score GB: glioblastoma (N = 24) vs panel of normal tissues; for Expression score NHL: non-Hodgkin lymphoma (N = 10) vs panel of normal tissues; for Expression score NSCLC: non-small cell lung cancer (N = 11) vs panel of normal tissues; for Expression score OC: ovarian cancer (N = 12) vs panel of normal tissues; for Expression score SCLC: small cell lung cancer (N = 10) vs panel of normal tissues
[4] = Table 13A, cancer entities on which the peptide was found presented
[5] = Table 13B, presentation on additional cancer entities

With “155: peptide found in PRKDC (gene looked up) (LLNPVVEFV; listed as Homo sapiens) [compound 155]” the “Presentation score CLL” value ([1]; HLA-A*02 peptides) was “+++”, the “Presentation score GBC_CCC” value ([1]; HLA-A*02 peptides) was “++” and the “Presentation score NHL” value ([1]; HLA-A*02 peptides) was “+”. For the same substance, the “Peptide Presentation on cancer entities” value [1, 4] was “CLL, OC, GBC_CCC, NHL”, the “Peptide Presentation on cancer entities” value [1, 5] was “NSCLC, HCC, BRCA, CRC, HNSCC” and the “Over-expression category of source gene (target coverage), BLCA” value ([2]; same cutoff) was “B (>= 20% of tumors above the cutoff, but <50%)”. The “Over-expression category of source gene (target coverage), BRCA” value [2] was “A (>=50% of tumors above the cutoff)”, the “Over-expression category of source gene (target coverage), CHOL” value ([2]; CHOL = Cholangiocarcinoma (N = 36), same cutoff) was “C (>=5% of tumors above the cutoff, but <20%)” and the “Over-expression category of source gene (target coverage), COAD” value ([2]; same cutoff) was “B (>= 20% of tumors above the cutoff, but <50%)”. The “Over-expression category of source gene (target coverage), DLBC” value ([2]; same cutoff) was “C (>=5% of tumors above the cutoff, but <20%)”, the “Over-expression category of source gene (target coverage), ESCA” value ([2]; same cutoff) was “A (>=50% of tumors above the cutoff)” and the “Over-expression category of source gene (target coverage), GBM” value ([2]; same cutoff) was “C (>=5% of tumors above the cutoff, but <20%)”. The “Over-expression category of source gene (target coverage), KICH” value ([2]; KICH = Kidney chromophobe (N = 66), same cutoff) was “C (>=5% of tumors above the cutoff, but <20%)”, the “Over-expression category of source gene (target coverage), KIRC” value ([2]; KIRC = Clear cell kidney carcinoma (N = 534), same cutoff) was “C (>=5% of tumors above the cutoff, but <20%)” and the “Over-expression category of source gene (target coverage), KIRP” value ([2]; KIRP = Papillary kidney carcinoma (N = 291), same cutoff) was “C (>=5% of tumors above the cutoff, but <20%)”. For the same substance, the “Over-expression category of source gene (target coverage), LAML” value ([2]; same cutoff) was “A (>=50% of tumors above the cutoff)”, the “Over-expression category of source gene (target coverage), LGG” value ([2]; LGG = Lower grade glioma (N = 534), same cutoff) was “B (>= 20% of tumors above the cutoff, but <50%)” and the “Over-expression category of source gene (target coverage), LUAD” value ([2]; same cutoff) was “B (>= 20% of tumors above the cutoff, but <50%)”. For the same substance, the “Over-expression category of source gene (target coverage), LUSC” value ([2]; same cutoff) was “A (>=50% of tumors above the cutoff)”, the “Over-expression category of source gene (target coverage), OV” value ([2]; same cutoff) was “B (>= 20% of tumors above the cutoff, but <50%)” and the “Over-expression category of source gene (target coverage), PAAD” value ([2]; PAAD = Pancreatic ductal adenocarcinoma (N = 179), same cutoff) was “C (>=5% of tumors above the cutoff, but <20%)”. For the same substance, the “Over-expression category of source gene (target coverage), PRAD” value ([2]; PRAD = Prostate adenocarcinoma (N = 498), same cutoff) was “C (>=5% of tumors above the cutoff, but <20%)”, the “Over-expression category of source gene (target coverage), READ” value ([2]; same cutoff) was “B (>= 20% of tumors above the cutoff, but <50%)” and the “Over-expression category of source gene (target coverage), SKCM” value ([2]; same cutoff) was “A (>=50% of tumors above the cutoff)”. The “Over-expression category of source gene (target coverage), STAD” value ([2]; same cutoff) was “A (>=50% of tumors above the cutoff)”, the “Over-expression category of source gene (target coverage), UCEC” value ([2]; same cutoff) was “C (>=5% of tumors above the cutoff, but <20%)” and the “Expression score BRCA” value [3] was “+”. The “Expression score AML” value [3] was “+”, the “Expression score CRC” value [3] was “+” and the “Expression score OSCAR” value [3] was “+”. The “Expression score GBC_CCC” value [3] was “+”, the “Expression score GB” value [3] was “+” and the “Expression score NHL” value [3] was “+”. For the same substance, the “Expression score NSCLC” value [3] was “+”, the “Expression score OC” value [3] was “+” and the “Expression score SCLC” value [3] was “+”.

For “230: peptide found in HELLS (gene looked up) (KLQNIMMLL; listed as Homo sapiens) [compound 230]”, the “Presentation score AML” value ([1]; HLA-A*02 peptides, acute myeloid leukemia (N = 18) vs panel of normal tissues (N = 262)) was “++++”, the “Presentation score BRCA” value ([1]; HLA-A*02 peptides, breast cancer (N = 17) vs panel of normal tissues (N = 262)) was “++++” and the “Presentation score CLL” value ([1]; HLA-A*02 peptides) was “++++”. The “Presentation score CRC” value ([1]; HLA-A*02 peptides, colorectal cancer (N = 28) vs panel of normal tissues (N = 262)) was “++++”, the “Presentation score GBC_CCC” value ([1]; HLA-A*02 peptides) was “++++” and the “Presentation score HCC” value ([1]; HLA-A*02 peptides, hepatocellular carcinoma (N = 16) vs panel of normal tissues (N = 262)) was “++++”. For the same substance, the “Presentation score NHL” value ([1]; HLA-A*02 peptides) was “++++”, the “Presentation score NSCLC” value ([1]; HLA-A*02 peptides, non-small cell lung cancer (N = 90) vs panel of normal tissues (N = 262)) was “++++” and the “Presentation score RCC” value ([1]; HLA-A*02 peptides, renal cell carcinoma (N = 20) vs panel of normal tissues (N = 262)) was “++++”. The “Presentation score UBC” value ([1]; HLA-A*02 peptides, urinary bladder cancer (N = 16) vs panel of normal tissues (N = 262)) was “++++”, the “Peptide Presentation on cancer entities” value [1, 4] was “NSCLC, HCC, CLL, UBC, BRCA, GBC_CCC, RCC, CRC, AML, NHL” and the “Peptide Presentation on cancer entities” value [1, 5] was “HNSCC”. The “Over-expression category of source gene (target coverage), BLCA” value ([2]; same cutoff) was “B (>= 20% of tumors above the cutoff, but <50%)”, the “Over-expression category of source gene (target coverage), BRCA” value [2] was “B (>= 20% of tumors above the cutoff, but <50%)” and the “Over-expression category of source gene (target coverage), COAD” value ([2]; same cutoff) was “B (>= 20% of tumors above the cutoff, but <50%)”. The “Over-expression category of source gene (target coverage), DLBC” value ([2]; same cutoff) was “A (>=50% of tumors above the cutoff)”, the “Over-expression category of source gene (target coverage), ESCA” value ([2]; same cutoff) was “A (>=50% of tumors above the cutoff)” and the “Over-expression category of source gene (target coverage), GBM” value ([2]; same cutoff) was “C (>=5% of tumors above the cutoff, but <20%)”. For the same substance, the “Over-expression category of source gene (target coverage), LAML” value ([2]; same cutoff) was “A (>=50% of tumors above the cutoff)”, the “Over-expression category of source gene (target coverage), LUAD” value ([2]; same cutoff) was “C (>=5% of tumors above the cutoff, but <20%)” and the “Over-expression category of source gene (target coverage), LUSC” value ([2]; same cutoff) was “B (>= 20% of tumors above the cutoff, but <50%)”. For the same substance, the “Over-expression category of source gene (target coverage), OV” value ([2]; same cutoff) was “C (>=5% of tumors above the cutoff, but <20%)”, the “Over-expression category of source gene (target coverage), READ” value ([2]; same cutoff) was “B (>= 20% of tumors above the cutoff, but <50%)” and the “Over-expression category of source gene (target coverage), SKCM” value ([2]; same cutoff) was “C (>=5% of tumors above the cutoff, but <20%)”. The “Over-expression category of source gene (target coverage), STAD” value ([2]; same cutoff) was “B (>= 20% of tumors above the cutoff, but <50%)”, the “Over-expression category of source gene (target coverage), UCEC” value ([2]; same cutoff) was “B (>= 20% of tumors above the cutoff, but <50%)” and the “Expression score BRCA” value [3] was “+”. For the same substance, the “Expression score AML” value [3] was “+”, the “Expression score CRC” value [3] was “+” and the “Expression score OSCAR” value [3] was “++”. The “Expression score GBC_CCC” value [3] was “+”, the “Expression score GC” value ([3]; gastric cancer (N = 11) vs panel of normal tissues) was “+” and the “Expression score GB” value [3] was “+”. The “Expression score NHL” value [3] was “+++”, the “Expression score NSCLC” value [3] was “++” and the “Expression score OC” value [3] was “++”. The “Expression score PC” value ([3]; pancreatic cancer (N = 26) vs panel of normal tissues) was “+”, the “Expression score RCC” value ([3]; renal cell carcinoma (N = 10) vs panel of normal tissues) was “+” and the “Expression score SCLC” value [3] was “+++”. The “Expression score UBC” value ([3]; urinary bladder cancer (N = 10) vs panel of normal tissues) was “+” and the “Expression score UEC” value ([3]; uterine cancer (N = 10) vs panel of normal tissues) was “++”.
